Laboratory results: publication PMC6428284
These are yes or no findings as the source states them, for the method shown. Some entries that bind do so weakly or less than the wild type.

Sequences of proteins named here, by UniProt entry; tags and fusion partners are left off. Residues count along the entry.
UniProt Q12306, residues 1-96: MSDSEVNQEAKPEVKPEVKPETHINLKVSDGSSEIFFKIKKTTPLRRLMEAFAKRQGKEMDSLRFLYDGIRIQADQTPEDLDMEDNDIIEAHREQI

T1: Gal4 DNA binding domain-Yen1 (full-length YEN1 in pAS1, plasmid pJ90) (S. cerevisiae) (UniProt P40028)
T1 sequence: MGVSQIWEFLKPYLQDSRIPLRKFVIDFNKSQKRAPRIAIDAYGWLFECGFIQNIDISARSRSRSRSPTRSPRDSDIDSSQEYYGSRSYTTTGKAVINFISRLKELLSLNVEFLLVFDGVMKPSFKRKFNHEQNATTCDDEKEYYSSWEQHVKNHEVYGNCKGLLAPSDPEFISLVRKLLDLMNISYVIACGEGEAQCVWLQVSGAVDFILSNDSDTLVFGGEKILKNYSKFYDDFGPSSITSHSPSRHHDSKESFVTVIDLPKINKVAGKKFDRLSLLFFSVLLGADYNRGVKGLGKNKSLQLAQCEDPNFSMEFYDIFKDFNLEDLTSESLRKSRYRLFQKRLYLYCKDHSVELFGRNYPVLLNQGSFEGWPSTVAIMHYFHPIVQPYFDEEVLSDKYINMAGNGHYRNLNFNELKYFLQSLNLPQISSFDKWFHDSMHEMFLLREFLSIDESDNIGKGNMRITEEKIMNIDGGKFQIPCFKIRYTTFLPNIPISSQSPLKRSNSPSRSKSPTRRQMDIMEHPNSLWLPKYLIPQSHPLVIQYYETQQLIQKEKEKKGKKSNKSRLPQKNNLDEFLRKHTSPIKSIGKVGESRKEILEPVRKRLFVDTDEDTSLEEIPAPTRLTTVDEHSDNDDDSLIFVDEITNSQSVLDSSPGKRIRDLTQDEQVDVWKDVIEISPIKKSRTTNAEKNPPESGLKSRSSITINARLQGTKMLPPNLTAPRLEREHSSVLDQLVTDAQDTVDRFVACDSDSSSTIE

B1: GAL4AD-Oaf1 (aa 19–283), library clone (domain or fragment, UniProt P39720 19-283)
chain: STKPYSEAFFLGFNNPTPGLEAEHSSTSPAPENSETHNRKRNRILFVCQACRKSKTKCDREKPECGRCVKHGLKCVYDVSKQPAPRIPSKDAIISRLEKDMFYWKDKAMKLLTEREVNESGKRSASPINTNNASGDSPDTKKQHKMEPIYEQSGNGDINNGTRNDIEINLYRSHPTMIMSKVMKREVKPLSENYIIIQDCFLKILVTSVFLDTSKNTMIPALTANANITRAQPSVANNLLKLKEMLIRQCQTEDEKNRVNEFTDR
B2: GAL4AD-Uls1 (aa 269–853), library clone (domain or fragment, UniProt Q08562 269-853)
chain: LPSNLSSVESSLKNETAKVEGKTTVRLPGLQNNVALLEQEQSELFKHFSEQPVDISDFGRKIKRKHSGDFADNKILKRPILPSKNMDHTTHNSHDSEQKNSSIIILSDEDESGAGINDIESPLKVSEPNTADALRSSVPEVISLLDLPNIDLNNSVIKEASGSNSIPTSETDAQSSSSSVLQGTIMTEQATQSSQHECNSSLDTLKKNHQKLLKDLNSRESELRNALSCCKTNSEILRRKLSRREKEVSDAEKHWQLLLTSMARGGRTISSTQQILVDEAENQLNKLKEKRQLTKSKLDSINLKMYNYNEQWKSFVHSKNINLQKSLAALERSARDSKASATVNKRNECLAEKEKLDQMLKEGTLSFSTYKQLTGEIQQKLNDLKLGDQRTTDINSVLPIVRQPLAKRDLFIKSIDTAKDLLAKNTSRTEMTKRILYRHLDNLVSYKNFFEDGRSLIDINRRHVAHESAQILFTNGVKMPIVFETLQDYGIKFSNPAIVNPDRRAQYFKSIEVARDLISKSTRSEDAKRKITRFLNIIEEFRKDIDTGFPPTPLKREGVGKAVVGLRQQGLKMDRLYENLRRYKI
B3: GAL4AD-Pes4 (aa 200–456), library clone (domain or fragment, UniProt P39684 200-456)
chain: DTFSRYGKILSCKLDSRKDIGFVYFEDEKTARNVIKMYNNTSFFGKKILCGIHFDKEVRSVPNFETQKSRLDAETIIEKEQSLNEKHSKGNDKESKNIYSSSQNSIFIKNLPTITTRDDILNFFSEVGPIKSIYLSNATKVKYLWAFVTYKNSSDSEKAIKRYNNFYFRGKKLLVTRAQDKEERAKFIESQKISTLFLENLSAVCNKEFLKYLCHQENIRPFKIQIDGYDENSSTYSGFIKFRNFEDATRIFNFLNN
B4: GAL4AD-Spo21 (aa 171–424), library clone (domain or fragment, UniProt Q12411 171-424)
chain: LLQNNNHFRHNKEIPQSKGSSNINTASIMSQYNVDTQATAIMSDMQKQYDSQQMTSPFVNEDLHFDPNGEVSHVIKAIFKEIGYKYDDFSDIPVFQLMQEMYQLVKKNSSARRTKITDYASKLKEKEAQLKSQNDKILKLETTNKAYKTKYKEVSLENKKIKEAFKELDNESYNHDEELLKKYKYTRETLDRVNREQQLIIDQNEFLKKSVNELQNEVNATNFKFSLFKEKYAKLADSITELNTSTKKREALGE
B5: GAL4AD-Fir1 (aa 629–876), library clone (domain or fragment, UniProt P40020 629-876)
chain: QNKEPTPLNQTPTDLIGKQRNCVNPHSIPFSVLSSNSQSSQSGSSKSSYNSEFSSNTAITDTTSQPSVTINRSTLEHNFIEEKRSIKNLGHGPPSQKNNYSFPRNKNTPSNRHDLDFNTIYEKRDGKMVEVILLDEDEDVGLKNNDISRTRVCHAQKAKNEQQKKRLSHCNEILGMCDKTADDAKRIIYQLVNEKHKFSEKGQQTKPKKSRVLPPLPFPLYDEKGNSLIPNKYQSSIHNDIPSHRKLK

target: T1, Gal4 DNA binding domain-Yen1 (full-length YEN1 in pAS1, plasmid pJ90) (S. cerevisiae); assay: two-hybrid; as a1, but in PJ69-4A with the genomic smt3F37A point mutation (SAY1566), which reduces the interaction of SUMO with SIMs

| binding | Molecule |
| --- | --- |
| binds | B1 |
| binds | B2 |
| binds | B3 |
| binds | B4 |
| binds | B5 |

target: T1, Gal4 DNA binding domain-Yen1 (full-length YEN1 in pAS1, plasmid pJ90) (S. cerevisiae); assay: two-hybrid; strain PJ69-4A (wild-type SMT3); GAL4BD-Yen1 or truncated/mutant derivatives as bait, GAL4AD fusions (pACTII) as prey; ten-fold serial dilutions spotted on SC-His and SC-Ade plates, 3 days at 30°C; library screen and directed tests

| binding | Molecule |
| --- | --- |
| no binding | GAL4AD-Smt3 (1–96) (plasmid pF12) (from UniProt Q12306 1-96) (domain or fragment) |

target: T1, Gal4 DNA binding domain-Yen1 (full-length YEN1 in pAS1, plasmid pJ90) (S. cerevisiae); assay: as above; remark: another data set of the same source

| binding | Molecule |
| --- | --- |
| binds | B1 |
| binds | B2 |
| binds | B3 |
| binds | B4 |
| binds | B5 |
